This note sets out measurements from article doi:10.1101/2022.10.08.511390.

These are yes or no findings as the source states them, for the method shown. For some assays here: Binding seen in cells or lysates may run through a third protein. Some results given as binding are weak or reduced against the parent protein; the word gives no strength.

In assay [1] the target is T1, 2-oxoglutarate dehydrogenase complex subunit E2o (DLST), mouse (mouse (endogenous in mouse heart mitochondria)) (UniProt Q9D2G2).
T1 sequence: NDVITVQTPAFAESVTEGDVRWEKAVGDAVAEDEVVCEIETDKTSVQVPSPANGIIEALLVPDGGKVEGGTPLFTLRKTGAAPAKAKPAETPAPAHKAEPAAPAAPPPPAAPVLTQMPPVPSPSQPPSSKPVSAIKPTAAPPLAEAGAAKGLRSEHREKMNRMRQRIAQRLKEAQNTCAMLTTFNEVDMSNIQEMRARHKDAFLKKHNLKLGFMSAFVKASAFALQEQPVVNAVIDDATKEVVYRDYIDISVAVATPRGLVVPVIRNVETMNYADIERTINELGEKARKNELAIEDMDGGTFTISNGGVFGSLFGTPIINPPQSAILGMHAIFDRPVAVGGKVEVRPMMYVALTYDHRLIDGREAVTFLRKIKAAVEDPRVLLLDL
Kind of assay: cross-linking.

Assay [2] deals with T2, 2-oxoglutarate dehydrogenase complex subunit E3 (DLD), mouse (mouse (endogenous in mouse heart mitochondria)) (UniProt O08749).
T2 sequence: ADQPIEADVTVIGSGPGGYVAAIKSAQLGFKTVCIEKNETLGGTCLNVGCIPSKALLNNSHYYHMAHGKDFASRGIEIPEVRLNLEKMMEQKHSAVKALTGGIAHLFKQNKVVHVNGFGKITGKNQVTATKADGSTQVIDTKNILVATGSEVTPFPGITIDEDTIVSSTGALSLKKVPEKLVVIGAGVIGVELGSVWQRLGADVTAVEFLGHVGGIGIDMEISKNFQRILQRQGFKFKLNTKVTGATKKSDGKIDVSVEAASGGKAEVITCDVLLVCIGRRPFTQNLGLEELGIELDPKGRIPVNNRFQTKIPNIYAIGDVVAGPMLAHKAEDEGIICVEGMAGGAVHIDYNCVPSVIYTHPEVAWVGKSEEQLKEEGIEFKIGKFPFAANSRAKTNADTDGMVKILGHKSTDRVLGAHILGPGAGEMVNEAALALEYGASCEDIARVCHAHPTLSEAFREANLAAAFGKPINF
Kind of assay: cross-linking.

In assay [3] the target is T3, 2-oxoglutarate dehydrogenase complex subunit E2o (DLST), bovine (bovine (endogenous in bovine heart mitochondria)) (UniProt P11179).
T3 sequence: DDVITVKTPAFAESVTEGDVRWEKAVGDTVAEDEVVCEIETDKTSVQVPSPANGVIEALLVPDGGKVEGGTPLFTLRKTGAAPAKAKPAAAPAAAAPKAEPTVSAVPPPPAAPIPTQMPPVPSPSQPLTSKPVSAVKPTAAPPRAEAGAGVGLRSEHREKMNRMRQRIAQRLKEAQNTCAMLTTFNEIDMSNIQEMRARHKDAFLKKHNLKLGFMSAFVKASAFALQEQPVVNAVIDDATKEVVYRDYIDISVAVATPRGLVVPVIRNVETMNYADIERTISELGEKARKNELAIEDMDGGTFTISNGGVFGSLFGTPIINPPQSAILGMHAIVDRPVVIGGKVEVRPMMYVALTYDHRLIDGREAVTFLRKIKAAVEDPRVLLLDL
Kind of assay: cross-linking.

For assay [4], the target named is T4, 2-oxoglutarate dehydrogenase complex subunit E3 (DLD), bovine (bovine (endogenous in bovine heart mitochondria)) (UniProt F1N206).
T4 sequence: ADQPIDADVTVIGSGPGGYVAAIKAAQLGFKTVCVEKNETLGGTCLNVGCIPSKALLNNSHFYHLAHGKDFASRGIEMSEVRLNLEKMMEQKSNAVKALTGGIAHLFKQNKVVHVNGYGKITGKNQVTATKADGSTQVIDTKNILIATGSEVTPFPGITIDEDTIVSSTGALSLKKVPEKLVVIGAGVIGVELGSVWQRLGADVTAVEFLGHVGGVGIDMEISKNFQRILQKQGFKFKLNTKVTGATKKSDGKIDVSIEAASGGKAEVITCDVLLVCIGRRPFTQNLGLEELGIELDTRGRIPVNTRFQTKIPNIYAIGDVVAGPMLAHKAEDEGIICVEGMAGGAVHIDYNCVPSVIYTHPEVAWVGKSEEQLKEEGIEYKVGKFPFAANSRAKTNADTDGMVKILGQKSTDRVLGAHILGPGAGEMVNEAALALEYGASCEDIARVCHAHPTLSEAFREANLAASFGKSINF
As to the kind of experiment: cross-linking.

In assay [5] the target is T3, 2-oxoglutarate dehydrogenase complex subunit E2o (DLST), bovine (bovine (endogenous in bovine heart mitochondria)). As to the kind of experiment: native gel or EMSA. (In general: Mobility shift assays separate free from complexed probe on a gel.)
Assay [6] has the same target. Kind of assay: native gel or EMSA. This is another data set of the same source.
The target of assay [7] is T4, 2-oxoglutarate dehydrogenase complex subunit E3 (DLD), bovine (bovine (endogenous in bovine heart mitochondria)). As to the kind of experiment: native gel or EMSA.
Assay [8] has as its target T3, 2-oxoglutarate dehydrogenase complex subunit E2o (DLST), bovine (bovine (endogenous in bovine heart mitochondria)). As to the kind of experiment: native gel or EMSA. This is another data set of the same source.

B1: MRPS36 (KGD4), mouse (protein, UniProt Q9CQX8 1-102)
chain: MGSKMASATRVVQVVKPHAPLIKFPNRRDKPKLSASEALGSAALPSHSSAISQHSKGSTSPDLLMHQGPPDTAEIIKSLPQKYRRKPMSQEEMEFIQRGGPE
With B1, the binding result in assay [1] and in assay [2] was “binds” throughout.

B2: 2-oxoglutarate dehydrogenase complex subunit E1o (OGDH), mouse (enzyme, UniProt Q60597 41-1023)
chain: SAPVAAEPFLSGTSSNYVEEMYCAWLENPKSVHKSWDIFFRNTNAGAPPGTAYQSPLSLSRSSLATMAHAQSLVEAQPNVDKLVEDHLAVQSLIRAYQIRGHHVAQLDPLGILDADLDSSVPADIISSTDKLGFYGLHESDLDKVFHLPTTTFIGGQEPALPLREIIRRLEMAYCQHIGVEFMFINDLEQCQWIRQKFETPGIMQFTNEEKRTLLARLVRSTRFEEFLQRKWSSEKRFGLEGCEVLIPALKTIIDMSSANGVDYVIMGMPHRGRLNVLANVIRKELEQIFCQFDSKLEAADEGSGDMKYHLGMYHRRINRVTDRNITLSLVANPSHLEAADPVVMGKTKAEQFYCGDTEGKKVMSILLHGDAAFAGQGIVYETFHLSDLPSYTTHGTVHVVVNNQIGFTTDPRMARSSPYPTDVARVVNAPIFHVNSDDPEAVMYVCKVAAEWRNTFHKDVVVDLVCYRRNGHNEMDEPMFTQPLMYKQIRKQKPVLQKYAELLVSQGVVNQPEYEEEISKYDKICEEAFTRSKDEKILHIKHWLDSPWPGFFTLDGQPRSMTCPSTGLEEDVLFHIGKVASSVPVENFTIHGGLSRILKTRRELVTNRTVDWALAEYMAFGSLLKEGIHVRLSGQDVERGTFSHRHHVLHDQNVDKRTCIPMNHLWPNQAPYTVCNSSLSEYGVLGFELGFAMASPNALVLWEAQFGDFNNMAQCIIDQFICPGQAKWVRQNGIVLLLPHGMEGMGPEHSSARPERFLQMCNDDPDVLPDLQEENFDINQLYDCNWIVVNCSTPGNFFHVLRRQILLPFRKPLIVFTPKSLLRHPEARTSFDEMLPGTHFQRVIPENGPAAQDPHKVKRLLFCTGKVYYDLTRERKARNMEEEVAITRIEQLSPFPFDLLLKEAQKYPNAELAWCQEEHKNQGYYDYVKPRLRTTIDRAKPVWYAGRDPAAAPATGNKKTHLTELQRFLDTAFDLDAFKKFS
With B2, the binding entry in assay [1] is on record as “binds”; in assay [2] it was “binds weakly”.

B3: 2-oxoglutarate dehydrogenase complex subunit E3 (DLD), mouse (enzyme, UniProt O08749 36-509)
chain: T2 sequence
For the molecule B3, the binding result in assay [1] was “binds”.

B4: MRPS36 (KGD4), bovine (protein, UniProt P82908 1-103)
chain: MMGSKMASASRVVQVVKPHTPLIRFPDRRDNPKPNVSEVLRSAGLPSHTSSISQHSKGSKSPDWLMHQGPPDTAEMIKTLPQKYRRKLVSQEEIEFIQRGGPE
Regarding B4, the binding entry in assay [3], in assay [4], in assay [5], in assay [6] and in assay [7] was “binds” in each case.

B5: 2-oxoglutarate dehydrogenase complex subunit E3 (DLD), bovine (enzyme, UniProt F1N206 36-509)
chain: T4 sequence
With B5, the binding result is listed as “binds” in assay [3], “binds weakly” in assay [8] and “binds” in assay [6].

B6: 2-oxoglutarate dehydrogenase complex subunit E1o (OGDH), bovine (enzyme, UniProt Q148N0 41-1023)
chain: TAPVAAEPFLSGTSSNYVEEMYYAWLENPKSVHKSWDIFFRNTNAGAPPGTAYQSPLPLSPGSLSAVARAGPLVEAQPNVDKLVEDHLAVQSLIRAYQIRGHHVAQLDPLGILDADLDSSVPADIISSTDKLGFYGLDESDLDKVFHLPTTTFIGGQESALPLREIIRRLEMAYCQHIGVEFMFINDLEQCQWIRQKFETPGVMQFTNEEKRTLLARLVRSTRFEEFLQRKWSSEKRFGLEGCEVLIPALKTIIDKSSENGVDYVIMGMPHRGRLNVLANVIRKELEQIFCQFDSKLEAADEGSGDVKYHLGMYHRRINRVTDRNITLSLVANPSHLEAADPVVMGKTKAEQFYCGDTEGKKVMSILLHGDAAFAGQGIVYETFHLSDLPSYTTHGTVHVVVNNQIGFTTDPRMARSSPYPTDVARVVNAPIFHVNSDDPEAVMYVCKVAAEWRSTFHKDVVVDLVCYRRNGHNEMDEPMFTQPLMYKQIRKQKPVLQKYAELLVSQGVVNQPEYEEEISKYDKICEEAFARSKDEKILHIKHWLDSPWPGFFTLDGQPRSMTCPSTGLTEDILTHIGNVASSVPVEDFTIHGGLSRILKTRGELVKNRTVDWALAEYMAFGSLLKEGIHIRLSGQDVERGTFSHRHHVLHDQNVDKRTCIPMNHLWPNQAPYTVCNSSLSEYGVLGFELGFAMASPNALVLWEAQFGDFHNTAQCIIDQFICPGQAKWVRQNGIVLLLPHGMEGMGPEHSSARPERFLQMCNDDPDVLPDLKEANFDINQLYDCNWVVVNCSTPGNFFHVLRRQILLPFRKPLIIFTPKSLLRHPEARSNFDEMLPGTHFQRVIPEDGPAAQNPGNVKRLLFCTGKVYYDLTRERKARDMVEQVAITRIEQLSPFPFDLLLQEVQKYPSAELAWCQEEHKNQGYYDYVKPRLRTTISRAKPVWYAGRDPAAAPATGNKKTHLTELQRLLDTAFDLDAFKNFS
B6: the binding result is recorded as “binds” in assay [3], “no binding” in assay [4], “binds” in assay [5] and “binds” in assay [6].
